Values from PubChem BioAssay AID1259405 (NCATS, 2018)

- Purpose: 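Knock-downs that lift recombinant protein yield in hamster ovary cells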 (primary screen)
- Cells: Chinese hamster CHO-K1 ovary cells with stable secreted eGFP expression
- Reagent: single siRNA against mouse genes, 0.8 pmol siRNA per well (2 µl of 400 nM stock)
- Time to read-out: 3 days
- Detection: 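Per-well intracellular GFP measured by laser scanning cytometry, plus viability from ATP luminescence, each relative to plate median of non-targeting control wells, in %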
- Reading the numbers: GFP, % of control: higher = more GFP per well, higher productivity; viability (ATP), % of control: higher = more viable cells (more ATP)
- Call rule: 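Called active when intracellular GFP, relative to negative control, is at or above 120%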
Shown is an unselected part of about 50,000 reagents. About 4,000 of all reagents (8%) count as active. 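Mouse siRNA library applied to hamster cells; one well for each siRNA.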 The numbers tell different reagents against one gene apart.

no.	target	siRNA no.	GFP, % of control	viability (ATP), % of control	activity call
1	Or6c88	1	46.5	64.3	inactive
2	Or6c88	2	63.6	57.2	inactive
3	Or6c88	3	102	75.6	inactive
4	Tmem266	1	76.4	80.4	inactive
5	Tmem266	2	79.1	104	inactive
6	Tmem266	3	70.5	71.8	inactive
7	Map7d3	1	37.2	50	inactive
8	Map7d3	2	59.6	85.8	inactive
9	Map7d3	3	43.9	63.5	inactive
10	Or8b3	1	107	59.2	inactive
11	Or8b3	2	58.2	50.9	inactive
12	Or8b3	3	71.8	79.2	inactive
13	5330438D12Rik	1	87.9	59	inactive
14	5330438D12Rik	2	69	97.4	inactive
15	5330438D12Rik	3	125	145	active
16	Fam222b	1	23	49.5	inactive
17	Fam222b	2	79.6	89.5	inactive
18	Fam222b	3	130	177	active
19	Riiad1	1	92.6	80.8	inactive
20	Riiad1	2	65.9	44	inactive
21	Riiad1	3	67.4	75.4	inactive
22	Fxyd4	1	98.9	79.6	inactive
23	Fxyd4	2	80.2	75.1	inactive
24	Fxyd4	3	99.9	88.9	inactive
25	Btg4	1	62.8	56.4	inactive
26	Btg4	2	91.5	98.3	inactive
27	Btg4	3	95.6	114	inactive
28	4930412M03Rik	1	89.7	49.3	inactive
29	4930412M03Rik	2	77.2	37.4	inactive
30	4930412M03Rik	3	90.4	77.5	inactive
31	St8sia5	1	105	79.5	inactive
32	St8sia5	2	87.3	41.4	inactive
33	St8sia5	3	97.4	86.9	inactive
34	Preb	1	79	67.8	inactive
35	Preb	2	97	64	inactive
36	Preb	3	64.1	88.7	inactive
